The target of this assay is Protease-activated receptor 1 (UniProt P25116). Briefly: MST; PAR-1 at constant concentration (printed as 1 mmol/L) with twofold serial dilutions of EPCR; RED-NHS labelled protein; MST-optimized buffer; 15 minutes at room temperature; standard-treated capillaries; Monolith NT.115; 60% MST power; both purified.

Sequences of proteins named here, by UniProt entry; tags and fusion partners are left off. A change or cut given only in a name is not applied to a line headed by its entry.
UniProt P25116: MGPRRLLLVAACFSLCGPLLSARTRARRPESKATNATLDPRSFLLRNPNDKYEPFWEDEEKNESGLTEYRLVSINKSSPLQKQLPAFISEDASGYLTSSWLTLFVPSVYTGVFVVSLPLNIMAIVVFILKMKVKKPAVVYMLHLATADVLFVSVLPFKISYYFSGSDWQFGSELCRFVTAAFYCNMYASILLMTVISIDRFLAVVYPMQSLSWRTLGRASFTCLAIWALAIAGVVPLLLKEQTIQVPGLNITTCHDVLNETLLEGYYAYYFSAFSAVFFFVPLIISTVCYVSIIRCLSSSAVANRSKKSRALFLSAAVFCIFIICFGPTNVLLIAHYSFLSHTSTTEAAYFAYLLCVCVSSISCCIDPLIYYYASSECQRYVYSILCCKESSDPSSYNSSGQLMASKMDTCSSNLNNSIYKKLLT

This is an account of results in publication PMC7131931.

No constants are given. Whether binding was seen depends on the method and setting. Binding can be weak; no strength is given.

B1: Endothelial protein C receptor (receptor, UniProt Q9UNN8 18-210)
chain: SQDASDGLQRLHMLQISYFRDPYHVWYQGNASLGGHLTHVLEGPDTNTTIIQLQPLQEPESWARTQSGLQSYLLQFHGLVRLVHQERTLAFPLTIRCFLGCELPPEGSRAHVFFEVAVNGSSFVSFRPERALWQADTQVTSGVVTFTLQQLNAYNRTRYELREFLEDTCVQYVQKHISAENTKGSQTSRSYTS
Regarding B1, the binding result is given as “binds”.
